Drawing on article PMC8719881, this text covers binding for 5 molecules.

Chains of the proteins cited; added tags and fusions are not shown. Residues count along the entry.
UniProt Q9UQ90, residues 106-795: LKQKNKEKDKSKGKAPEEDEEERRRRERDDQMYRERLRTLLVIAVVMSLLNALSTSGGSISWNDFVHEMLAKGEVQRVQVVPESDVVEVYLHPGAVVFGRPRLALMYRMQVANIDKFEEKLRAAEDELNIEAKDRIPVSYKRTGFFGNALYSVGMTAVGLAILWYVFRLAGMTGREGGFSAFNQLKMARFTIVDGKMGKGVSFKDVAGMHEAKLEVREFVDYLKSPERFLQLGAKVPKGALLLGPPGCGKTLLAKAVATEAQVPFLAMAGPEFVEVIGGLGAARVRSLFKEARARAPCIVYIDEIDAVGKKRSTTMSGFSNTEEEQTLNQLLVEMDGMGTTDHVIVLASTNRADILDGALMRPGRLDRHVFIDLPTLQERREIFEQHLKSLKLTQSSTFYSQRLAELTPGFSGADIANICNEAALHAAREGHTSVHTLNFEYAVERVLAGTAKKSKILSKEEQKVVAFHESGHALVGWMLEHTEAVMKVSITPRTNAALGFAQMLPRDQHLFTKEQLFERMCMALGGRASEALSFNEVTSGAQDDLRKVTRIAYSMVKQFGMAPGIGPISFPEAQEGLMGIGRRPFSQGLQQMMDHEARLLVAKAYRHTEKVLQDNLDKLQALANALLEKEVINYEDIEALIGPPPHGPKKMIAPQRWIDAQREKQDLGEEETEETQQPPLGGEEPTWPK
UniProt Q9Y4W6, residues 67-797: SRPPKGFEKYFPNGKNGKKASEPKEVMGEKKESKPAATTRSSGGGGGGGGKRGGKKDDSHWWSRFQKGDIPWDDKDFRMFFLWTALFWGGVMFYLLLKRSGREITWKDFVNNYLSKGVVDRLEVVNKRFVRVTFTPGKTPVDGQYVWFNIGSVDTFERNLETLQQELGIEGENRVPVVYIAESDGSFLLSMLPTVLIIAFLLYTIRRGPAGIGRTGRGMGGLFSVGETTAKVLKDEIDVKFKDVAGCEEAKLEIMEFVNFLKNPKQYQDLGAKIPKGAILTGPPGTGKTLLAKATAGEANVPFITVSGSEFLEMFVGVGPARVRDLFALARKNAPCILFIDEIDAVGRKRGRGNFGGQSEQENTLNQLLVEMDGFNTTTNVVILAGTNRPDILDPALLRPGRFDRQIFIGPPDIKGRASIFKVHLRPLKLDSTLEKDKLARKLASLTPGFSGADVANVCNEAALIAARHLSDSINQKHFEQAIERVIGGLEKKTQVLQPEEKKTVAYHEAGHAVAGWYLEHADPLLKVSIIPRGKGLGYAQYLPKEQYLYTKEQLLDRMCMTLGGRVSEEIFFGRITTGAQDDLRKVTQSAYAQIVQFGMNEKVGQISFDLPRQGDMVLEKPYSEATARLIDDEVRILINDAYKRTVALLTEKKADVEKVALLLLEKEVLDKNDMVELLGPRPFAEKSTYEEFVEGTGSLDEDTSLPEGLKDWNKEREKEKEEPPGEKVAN

No constants are given. Whether binding was seen depends on the method and setting. In cells and extracts the contact can be indirect. A yes stands for co-enrichment or nearness to the bait. Other partners may have been found. Where a sequence is shown, tags or fusion partners need not be part of it.

The labels stand for the following.
T1: SMIM4^FLAG (human) (UniProt Q8WVI0)
T1 sequence: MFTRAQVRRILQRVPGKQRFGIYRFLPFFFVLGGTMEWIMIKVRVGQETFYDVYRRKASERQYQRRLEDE

B1: UQCC2 (protein, UniProt Q9BRT2 14-126)
chain: EEWPVDETKRGRDLGAYLRQRVAQAFREGENTQVAEPEACDQMYESLARLHSNYYKHKYPRPRDTSFSGLSLEEYKLILSTDTLEELKEIDKGMWKKLQEKFAPKGPEEDHKA
B2: UQCC1 (protein, UniProt Q9NVA1 1-299)
chain: MALLVRVLRNQTSISQWVPVCSRLIPVSPTQGQGDRALSRTSQWPQMSQSRACGGSEQIPGIDIQLNRKYHTTRKLSTTKDSPQPVEEKVGAFTKIIEAMGFTGPLKYSKWKIKIAALRMYTSCVEKTDFEEFFLRCQMPDTFNSWFLITLLHVWMCLVRMKQEGRSGKYMCRIIVHFMWEDVQQRGRVMGVNPYILKKNMILMTNHFYAAILGYDEGILSDDHGLAAALWRTFFNRKCEDPRHLELLVEYVRKQIQYLDSMNGEDLLLTGEVSWRPLVEKNPQSILKPHSPTYNDEGL

This test addresses T1, SMIM4^FLAG (human). Description: affinity purification with mass spectrometry; SILAC; anti-FLAG immunoisolation from mitochondria of wild-type and FLAG-bait-expressing HEK293T cells (1% digitonin, 150 mM NaCl), FLAG peptide elution, LC-MS/MS, n=4 with label switch.
Regarding C12ORF73 (from UniProt Q69YU5 1-71), the binding entry is recorded as “binds”.

As for SPG7 (from UniProt Q9UQ90 106-795), the binding result is “binds”.

As to AFG3L2 (from UniProt Q9Y4W6 67-797), the binding entry is “binds”. In the case of B1 it was “binds”; in that of B2, “binds”.
